Measured values reported in PubChem BioAssay AID504467 (National Center for Advancing Translational Sciences (NCATS), 2011).
Screen size: about 330,000 compounds; about 7,700 (2.3%) were called active. The inconclusive results got no clear call from the source; some entries with a clear call stand among them for comparison. Calls follow the shape of the dose curve; as a rule, active = well fitted inhibition curve with a large enough effect; inconclusive = small, poorly fitted or top-dose-only effect, or effect the other way; inactive = flat fitted curve, though single readings scatter. Potencies beside an inconclusive call are fits to weak or partial responses and may not hold up.

Experiment: qHTS screen for small molecules that inhibit ELG1-dependent DNA repair in human embryonic kidney (HEK293T) cells expressing luciferase-tagged ELG1; also: nearly all actives have a fitted effect of over 55% in size
Settings: HEK293T ELG1-luciferase reporter, luminescence, 16 h, DNA damage induced by 5-fluorouridine; activity change, negative = inhibition: at 46.1 µM (top of the series)
Method in brief: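 DMSO vehicle served as the neutral condition. Each well held 2,000 cells given 5-fluorouridine plus compound; after 16 hr at 37 °C/5% CO2, ONE-Glo was added and luciferase measured 30 min later.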
% is scaled to controls: 0 for no effect and ±100 for the full control effect; potency is read from the fitted curve at half-maximal effect.

For `O=C(CSC1=NCCN1)Nc1ccccc1[N+](=O)[O-]`, which Potency is on record?
The Potency was inconclusive: 20.6 µM [inhibitor, single point].

Which Potency does the source give for `COCCCNC(=S)N1CCN(c2nc(-c3cccc(OC)c3)cs2)CC1` here?
Its Potency is inconclusive: 11.2 µM [inhibitor, partial curve, poor fit].

For `O=C(CCCN1C(=O)C(c2ccccc2)Oc2cccnc21)Nc1ccccc1Cl` (stereo unspecified), which “activity change, negative = inhibition” value is on record?
Its value is inactive: -2.14%.

For `O=C(NCc1ccco1)c1ccc(CS(=O)Cc2cccc(Cl)c2)o1` (stereo unspecified), which “activity change, negative = inhibition” value is on record?
Its value is inactive: 9.06%.

With `CC(C)Cn1c(O)c(N=NC(=O)c2cccc(S(=O)(=O)N3CCCCC3)c2)c2ccccc21` as the molecule, how does the Potency read?
The Potency was inconclusive: 23.1 µM [inhibitor, single point].

Which Potency does the source give for `O=C1N=C(N2CCOCC2)S/C1=C1\C(=O)N(Cc2ccccc2)c2ccccc21` here?
Its Potency is inconclusive: 2.59 µM [activator, partial curve].

Which Potency does the source give for `C[C@H](N)c1nnc(SCc2ccc(Cl)cc2Cl)o1` here?
Its Potency is inconclusive: 29.1 µM [activator, single point].

Which Potency does the source give for `Cn1c(=O)c2c(SCc3cccnc3)nc(CC(C)(C)C)nc2n(C)c1=O` here?
The Potency was inconclusive: 29.1 µM [inhibitor, single point].

For `CCOC(=O)C1=NS(=O)(=O)NC(C)=C1`, which Potency is on record?
Its Potency is inconclusive: 25.9 µM [activator, partial curve, poor fit].

With `COc1cccc(NC(=S)N2CCc3cc(OC)c(OC)cc3C2COc2ccc3c(C)cc(=O)oc3c2)c1` (stereo unspecified) as the molecule, how does the Potency read?
The Potency was inconclusive: 5.17 µM [inhibitor, partial curve].

Which Potency does the source give for `Cc1nc(NC(=O)c2ccccc2)sc1C1(C)CC(c2ccccc2F)=NO1` (stereo unspecified) here?
The Potency was inconclusive: 29.1 µM [inhibitor, single point].

Which “activity change, negative = inhibition” value does the source give for `O=C(O)C1OC(Oc2c(-c3ccc(O)c(O)c3)oc3cc(O)cc(O)c3c2=O)C(O)C(O)C1O` (stereo unspecified) here?
The value was inactive: 10.5%.

With `O=C(Nc1nc2ccccc2[nH]1)c1cccc(F)c1` as the molecule, how does the Potency read?
The Potency was inconclusive: 1.3 µM [activator, partial curve].

With `COc1cc(Cl)c(C)cc1NC(=O)CSc1cc(Cl)ccc1Cl` as the molecule, how does the “activity change, negative = inhibition” value read?
Its value is inactive: 8.69%.

With `COc1ccc(-c2nn(-c3ccccc3)cc2/C=N/NS(=O)(=O)c2ccccc2)cc1` as the molecule, how does the Potency read?
Its Potency is inconclusive: 18.4 µM [activator, partial curve].

Which Potency does the source give for `CC(=O)N1N=C(c2cccc([N+](=O)[O-])c2)OC1c1cccc(Br)c1` (stereo unspecified) here?
Its Potency is inconclusive: 29.1 µM [inhibitor, single point].

For `Cn1c(=O)c2cc(S(=O)(=O)NCCC(=O)N3CC=C(c4ccccc4)CC3)ccc2n(C)c1=O`, which Potency is on record?
The Potency was inconclusive: 4.61 µM [inhibitor, single point].

For `O=C(CCn1c(SCC(=O)NCc2ccco2)nc2ccccc2c1=O)NCCc1ccccc1`, which “activity change, negative = inhibition” value is on record?
Its value is inactive: -16.6%.

With `Cc1ccc2[nH]c(=O)c(CN(CCCN(C)C)C(=O)Nc3ccc(Cl)cc3)cc2c1` as the molecule, how does the “activity change, negative = inhibition” value read?
Its value is inactive: 3.75%.

With `COc1cc(/C=C(/C#N)c2nc3ccccc3[nH]2)ccc1OCC(=O)Nc1ccccc1C(C)C` as the molecule, how does the Potency read?
The Potency was inconclusive: 9.2 µM [inhibitor, partial curve].

For `O=C(COC(=O)c1c2c(nc3ccccc13)/C(=C\c1cccs1)CCC2)Nc1ccccc1`, which Potency is on record?
Its Potency is active: 14.6 µM.

With `CCS(=O)(=O)c1nc(S(=O)(=O)c2ccc(Cl)cc2)c(N2CCN(C)CC2)s1` as the molecule, how does the “activity change, negative = inhibition” value read?
The value was inactive: 9.21%.

With `COc1ccc(CNC(=O)C2CCC(CNc3c(N4CCC(C)CC4)c(=O)c3=O)CC2)cc1` (stereo unspecified) as the molecule, how does the Potency read?
Its Potency is inconclusive: 23.1 µM [activator, partial curve, poor fit].

For `NS(=O)(=O)c1ccc(CCNC(=O)c2ccc3c(c2)OCCO3)cc1`, which “activity change, negative = inhibition” value is on record?
The value was inactive: -11.9%.

With `O=C(CCS(=O)(=O)c1ccccc1)Nc1nc2cc3c(cc2s1)OCO3` as the molecule, how does the Potency read?
The Potency was inconclusive: 23.1 µM [activator, partial curve].

For `Nc1ccc(-n2cc(-c3ccccc3)[nH]c2=S)cc1`, which Potency is on record?
Its Potency is inconclusive: 16.4 µM [activator, partial curve].

Which Potency does the source give for `CN(C)c1ccc(C(=O)N=c2sccn2C)cc1[N+](=O)[O-]` here?
The Potency was inconclusive: 20.6 µM [activator, partial curve].

For `CCCc1nc(SCC(=O)N2CCc3ccccc3C2)c2ccccc2n1`, which “activity change, negative = inhibition” value is on record?
The value was inactive: -22.5%.

With `CCCCC(=O)Nc1ccc(C)c(O)c1` as the molecule, how does the Potency read?
The Potency was inconclusive: 29.1 µM [activator, single point].

Which Potency does the source give for `CCCn1c(SCC(=O)c2c(N)n(C3CC3)c(=O)[nH]c2=O)nc2cc(S(N)(=O)=O)ccc21` here?
Its Potency is inconclusive: 32.6 µM [activator, partial curve, poor fit].

With `OCCn1c(CSc2nnc(-c3ccco3)n2-c2ccccc2)nc2ccc(Cl)cc21` as the molecule, how does the Potency read?
Its Potency is inconclusive: 23.1 µM [inhibitor, partial curve, poor fit].

Which Potency does the source give for `Cn1cccc1C(=O)OCC(=O)c1c[nH]c2ccccc12` here?
Its Potency is inconclusive: 5.17 µM [activator, partial curve].

For `c1ccc(Oc2nc(N3CCOCC3)nc(N3CCOCC3)n2)cc1`, which Potency is on record?
Its Potency is inconclusive: 13 µM [inhibitor, partial curve].

For `COc1cccc(N2CCN(C(=O)c3ccc4nc(N5CCC(C)CC5)sc4c3)CC2)c1`, which Potency is on record?
Its Potency is inconclusive: 1.83 µM [activator, partial curve].

With `O=C(O)/C(=C\C(=O)c1ccccc1)Nc1ccccc1` as the molecule, how does the Potency read?
Its Potency is inconclusive: 11.6 µM [activator, partial curve].

For `Cn1cc(SCC(=O)Nc2nccs2)c2ccccc21`, which Potency is on record?
The Potency was inconclusive: 23.1 µM [activator, partial curve].

Which “activity change, negative = inhibition” value does the source give for `Cc1cc(C(=O)OCC(=O)NCc2ccco2)c(C)n1-c1ccc(F)cc1` here?
The value was inactive: 5.41%.

Which Potency does the source give for `CCOC(=O)c1c(C)[nH]c(C(=O)CSc2ccccc2)c1C` here?
Its Potency is inconclusive: 0.731 µM [activator, full curve].

With `CCOc1cc(N2CCOCC2)c(OCC)cc1NC(=O)c1ccc(OC(C)C)cc1` as the molecule, how does the Potency read?
The Potency was inconclusive: 13 µM [inhibitor, partial curve, poor fit].

With `O=C(CSc1nnnn1-c1ccccc1)Nc1ncc(Cc2ccccc2Cl)s1` as the molecule, how does the “activity change, negative = inhibition” value read?
The value was inactive: 0.841%.

For `CCOC(=O)NNC(=O)C1CCC(C)CC1` (stereo unspecified), which Potency is on record?
The Potency was inconclusive: 29.1 µM [activator, single point].

For `Cc1noc(C)c1CNCc1ccccc1`, which Potency is on record?
The Potency was inconclusive: 29.1 µM [inhibitor, single point].

For `CNc1ncc(C(=O)c2ccc(F)cc2)s1`, which Potency is on record?
The Potency was inconclusive: 20.6 µM [activator, partial curve].

With `Cc1nc(-c2ccc(Cl)cc2)sc1C1(C)CC(c2cccnc2)=NO1` (stereo unspecified) as the molecule, how does the Potency read?
The Potency was inconclusive: 18.3 µM [activator, partial curve].

With `O=C(CNS(=O)(=O)c1ccc(F)cc1)N1CCCCCC1` as the molecule, how does the Potency read?
Its Potency is inconclusive: 20.6 µM [activator, single point].

Which “activity change, negative = inhibition” value does the source give for `CCC(CC)c1nnc(NC(=O)C2CC(=O)N(CCc3ccc(F)cc3)C2)s1` (stereo unspecified) here?
The value was inactive: 2.11%.

With `CC(=O)NC(CC(=O)Nc1ccc2c(c1)OCCO2)c1ccccc1` (stereo unspecified) as the molecule, how does the Potency read?
The Potency was inconclusive: 20.6 µM [activator, partial curve].

With `CN(C)c1ccc(C(=O)OCC(=O)NCCNC(=O)COC(=O)c2ccc(N(C)C)cc2)cc1` as the molecule, how does the Potency read?
Its Potency is inconclusive: 8.2 µM [activator, partial curve].

With `CCOC(=O)N1CCC(NC(=O)c2oc3c(F)cccc3c2C)CC1` as the molecule, how does the Potency read?
Its Potency is inconclusive: 29.1 µM [activator, single point].

Which Potency does the source give for `Cc1ccc(-c2cc(C(F)(F)F)n3ncc(C(=O)NCc4ccco4)c3n2)cc1` here?
Its Potency is inconclusive: 5.8 µM [inhibitor, full curve].

Which “activity change, negative = inhibition” value does the source give for `CCCc1cc(C(=O)N2CCCC(C(=O)c3ccc(Cl)cc3)C2)n(C)n1` (stereo unspecified) here?
Its value is inactive: -3.17%.

With `Cc1cccn2c(=O)c(/C=C(\C#N)S(=O)(=O)c3ccccc3)c(N3CCC(C(N)=O)CC3)nc12` as the molecule, how does the Potency read?
Its Potency is inconclusive: 9.2 µM [inhibitor, partial curve, poor fit].

With `Cc1cc(C(=O)N2CCCC(N3CCN(c4cccc(C(F)(F)F)c4)CC3)C2)nn1C` (stereo unspecified) as the molecule, how does the “activity change, negative = inhibition” value read?
The value was inactive: -16.9%.

Which Potency does the source give for `CCCCc1nc(C(N)=O)c2[nH]c(=O)n(-c3ccc(OC)cc3OC)c2n1` here?
Its Potency is inconclusive: 32.6 µM [inhibitor, partial curve, poor fit].

With `Cc1ccccc1-n1c(C)nnc1SCc1nc2ccccc2s1` as the molecule, how does the Potency read?
The Potency was inconclusive: 9.2 µM [activator, partial curve].

With `COc1ccc(CCNc2oc(COc3ccccc3)nc2C#N)cc1` as the molecule, how does the “activity change, negative = inhibition” value read?
The value was inactive: 11.6%.

For `C=Cn1cc[n+](CC(=O)c2ccc(Br)s2)c1`, which Potency is on record?
The Potency was inconclusive: 0.146 µM [inhibitor, single point].

For `CC(=O)Nc1nc(=O)c2ccccc2s1`, which Potency is on record?
The Potency was inconclusive: 25.9 µM [activator, single point].

With `Cc1cccc(N2C(=O)C(O)=C(C(=O)c3cccs3)C2c2ccc(Cl)cc2)n1` (stereo unspecified) as the molecule, how does the Potency read?
Its Potency is inconclusive: 16.4 µM [inhibitor, single point].

With `COc1nc(C)ccc1-c1noc(-c2ccncc2)n1` as the molecule, how does the Potency read?
Its Potency is inconclusive: 13 µM [activator, partial curve].

For `CCC(=O)NC(c1ccccc1)c1nc2ccccc2[nH]1` (stereo unspecified), which Potency is on record?
The Potency was inconclusive: 29.1 µM [activator, single point].

With `Cn1c(=O)[nH]c(=O)c2c1nc(NCCCO)n2Cc1ccc(F)cc1` as the molecule, how does the Potency read?
Its Potency is inconclusive: 20.6 µM [activator, partial curve].

Which Potency does the source give for `O=C(Nc1ccn(Cc2c(F)c(F)cc(F)c2F)n1)c1ccc(COc2ccccc2Cl)cc1` here?
The Potency was inconclusive: 20.6 µM [inhibitor, partial curve].

With `CN1C=CC(=C2C(=O)c3ccccc3C2=O)C=C1` as the molecule, how does the Potency read?
The Potency was inconclusive: 2.31 µM [activator, partial curve].

For `COc1cccc(=O)c2c(C)n(CC(=O)c3ccccc3)c(C)c12`, which “activity change, negative = inhibition” value is on record?
The value was inactive: 5.82%.

For `Cc1ccc(O)c(C(CC(=O)NCc2cccnc2)c2ccccc2)c1` (stereo unspecified), which Potency is on record?
The Potency was inconclusive: 20.6 µM [inhibitor, partial curve, poor fit].
